According to patent publication US7786042B2, “Fluridone as an anti-inflammatory agent” (Universita' Degli Studi Di Genova, priority 2005, dated 2010):
Several values for one entry are separate records, joined by “and”; a condition that tells them apart may be missing. Equal entries are not always repeated.

How the values were obtained:
human cell types = experiment: ABA content in human cell types by HPLC-MS; type: cell-based
[1] = test system: murine microglial cell line N9; experiment: ABA content in murine microglia N9 by HPLC-MS; type: cell-based
Method: Cells from the murine microglial cell line N9 were pre-incubated with or without 50 μM fluridone for 2 hours and then stimulated with 100 ng/ml lipopolysaccharide (LPS) for 24 hours. The ABA content was measured by HPLC-MS (see Materials and Methods) and was compared with that of untreated cells (control). The results are the mean from 2 experiments.
N9 cells were seeded (25×10^6/flask) in IMDM medium containing fetal calf serum, incubated for 3 h at 37° C. with or without 50 μM fluridone and then incubated for 3 days in the absence or in the presence of 200 ng/ml lipopolysaccharide (LPS). Cells were then recovered, washed in phosphate-buffered saline isotonic solution at pH 7.4 (PBS), resuspended in 0.5 ml water and sonicated. An aliquot from each cell lysate (10 μl) was used to assay protein content (using the method by Bradford), the rest was added to methanol (2 ml) and 1400 cpm [^3H]-ABA (Amersham, Milan, Italy) as internal standard. The acid extraction of ABA was performed in an apolar phase. A small aliquot of the extract was used to determine radioactivity (with a β-counter), allowing the calculation of the percentage of ABA recovery after-extraction. The rest of the extract was analyzed on an Agilent 1100 capillary chromatography system, with a diode array detector, equipped with a Waters Atlantis™ dC18 150×1 mm column, particle size 3 μm, coupled to an Agilent 1100 series LC/MSD Trap mass spectrometer, equipped with an orthogonal geometry electrospray source and ion trap analyser. The HPLC separation was performed at a flow rate of 30 μl/min, with buffer A (1% v/v acetic acid in water) and buffer B (90% acetonitrile and 10% buffer A) and the following gradient: from 0 to 3 min 100% A, from 3 to 35 min linearly increasing to 100% B, from 35 to 40 min 100% B. The detection wavelength was set at 254 nm. MS (ion 263.3) and MS/MS (ions 219.3; 153.4) spectra were acquired in negative ion mode in the m/z range 50-300.

## CC1=CC(=O)CC(C)(C)[C@@]1(O)/C=C/C(C)=C\C(=O)O (racemic) [ABA, (±)-cis, trans ABA]
Human cell types; Fibroblasts (skin)
  ABA content: 9.0 ± 0.1 (n = 3) pMoles/mg proteins
Human cell types; Granulocytes, freshly isolated
  ABA content: 0.43±0.05 pMoles/mg proteins and 0.43 ± 0.05 (n = 3) pMoles/mg proteins
Human cell types; Lymphocytes, freshly isolated
  ABA content: 0.53±0.1 pMoles/mg proteins and 0.53 ± 0.1 (n = 4) pMoles/mg proteins
Human cell types; Mesenchymal stem cells (bone marrow stroma precursors)
  ABA content: 2.63 ± 0.3 (n = 3) pMoles/mg proteins
Human cell types; Monocytes
  ABA content: 12.96 ± 2.1 (n = 3) pMoles/mg proteins
Human cell types; Platelets
  ABA content: 0.033 ± 0.01 (n = 3) pMoles/mg proteins
Human cell types; granulocytes stimulated 18 hours with f-MLP
  intracellular ABA content: 0.84 ± 0.1 pmol/mg
Human cell types; lymphocytes incubated 18 hours with PMA
  ABA content: 1.1 ± 0.4 pmol/mg
[1]; N9 cells
  increase of ABA concentration after LPS stimulation: more than 4 times
[1]; N9 cells stimulated with LPS
  ABA content: 1.3±0.2 pMoles/mg proteins
[1]; N9 cells, unstimulated
  ABA content: 0.3±0.05 pMoles/mg proteins
